The values below are quoted from earlier work in patent publication US10369131B2, “Ultrapure tetrahydrocannabinol-11-oic acids” (Corbus Pharmaceuticals, Inc., priority 2013, dated 2019).

The chains behind the UniProt entries cited, without tags or fusion partners.
UniProt P21554, whole entry: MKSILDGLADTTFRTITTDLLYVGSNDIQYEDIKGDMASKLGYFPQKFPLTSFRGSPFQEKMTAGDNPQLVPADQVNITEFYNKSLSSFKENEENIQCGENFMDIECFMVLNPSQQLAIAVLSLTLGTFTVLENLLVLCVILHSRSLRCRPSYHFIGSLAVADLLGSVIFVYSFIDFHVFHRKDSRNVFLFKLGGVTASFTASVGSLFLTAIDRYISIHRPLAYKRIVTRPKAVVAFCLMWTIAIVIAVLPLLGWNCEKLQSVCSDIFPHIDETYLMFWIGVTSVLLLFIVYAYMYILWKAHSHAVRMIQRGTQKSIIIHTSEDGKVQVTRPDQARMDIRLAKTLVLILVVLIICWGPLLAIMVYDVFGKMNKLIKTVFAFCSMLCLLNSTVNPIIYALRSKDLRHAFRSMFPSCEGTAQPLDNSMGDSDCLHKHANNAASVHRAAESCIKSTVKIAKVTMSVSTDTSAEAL

The match of structure and compound is tentative.

In this data set the target is CB1 receptor (Homo sapiens, UniProt P21554). The settings on record: earlier ajulemic acid synthesis products, literature; cited from earlier work.

For `CCCCCCC(C)(C)c1cc(O)c2c(c1)OC(C)(C)[C@@H]1CC=C(C(=O)O)C[C@@H]21`, the “ratio of CB1/CB2 binding” value is 0.10.
